Results: US20060140889A1
No constants are given. Whether binding was seen depends on the method and setting. Some binding calls cover weakened binding; strength is not graded here.

Tests used:
Details in all cases: remark: other sources report otherwise
[1] = biological target: chicken lysozyme (chicken), P00698; assay: column of lysozyme immobilised on Eupergit, A280 of bypass and flow through, release with CAPS buffer pH 11
[2] = biological target: chicken lysozyme (chicken), P00698; assay: ELISA on lysozyme against ELK control
[3] = biological target: chicken lysozyme (chicken), P00698; assay: column of iMab100 immobilised on Eupergit, A280 of bypass and flow through, release with CAPS buffer pH 11

Measured: binding

B1: iMab100 (designed binder, not shown: small tags and cut ends)
chain: NVKLVEKGGNFVENDDDLKLTCRAEGYTIGPYCMGWFRQAPNDDSTNVATINMGGGITYYGDSVKERFDIRRDNASNTVTLSMDDLQPEDSAEYNCAGDSTIYASYYECGHGLSTGGYGYDSHYRGQGTDVTVSS
binds: [1] | [2] | [3]
